These are yes or no findings as the source states them, for the method shown. Binding seen in cells or lysates may run through a third protein. Some binding calls cover weakened binding; strength is not graded here.

Amino acid sequences for entries named in this document (tags omitted). A change or cut given only in a name is not applied to a line headed by its entry.
UniProt O14746: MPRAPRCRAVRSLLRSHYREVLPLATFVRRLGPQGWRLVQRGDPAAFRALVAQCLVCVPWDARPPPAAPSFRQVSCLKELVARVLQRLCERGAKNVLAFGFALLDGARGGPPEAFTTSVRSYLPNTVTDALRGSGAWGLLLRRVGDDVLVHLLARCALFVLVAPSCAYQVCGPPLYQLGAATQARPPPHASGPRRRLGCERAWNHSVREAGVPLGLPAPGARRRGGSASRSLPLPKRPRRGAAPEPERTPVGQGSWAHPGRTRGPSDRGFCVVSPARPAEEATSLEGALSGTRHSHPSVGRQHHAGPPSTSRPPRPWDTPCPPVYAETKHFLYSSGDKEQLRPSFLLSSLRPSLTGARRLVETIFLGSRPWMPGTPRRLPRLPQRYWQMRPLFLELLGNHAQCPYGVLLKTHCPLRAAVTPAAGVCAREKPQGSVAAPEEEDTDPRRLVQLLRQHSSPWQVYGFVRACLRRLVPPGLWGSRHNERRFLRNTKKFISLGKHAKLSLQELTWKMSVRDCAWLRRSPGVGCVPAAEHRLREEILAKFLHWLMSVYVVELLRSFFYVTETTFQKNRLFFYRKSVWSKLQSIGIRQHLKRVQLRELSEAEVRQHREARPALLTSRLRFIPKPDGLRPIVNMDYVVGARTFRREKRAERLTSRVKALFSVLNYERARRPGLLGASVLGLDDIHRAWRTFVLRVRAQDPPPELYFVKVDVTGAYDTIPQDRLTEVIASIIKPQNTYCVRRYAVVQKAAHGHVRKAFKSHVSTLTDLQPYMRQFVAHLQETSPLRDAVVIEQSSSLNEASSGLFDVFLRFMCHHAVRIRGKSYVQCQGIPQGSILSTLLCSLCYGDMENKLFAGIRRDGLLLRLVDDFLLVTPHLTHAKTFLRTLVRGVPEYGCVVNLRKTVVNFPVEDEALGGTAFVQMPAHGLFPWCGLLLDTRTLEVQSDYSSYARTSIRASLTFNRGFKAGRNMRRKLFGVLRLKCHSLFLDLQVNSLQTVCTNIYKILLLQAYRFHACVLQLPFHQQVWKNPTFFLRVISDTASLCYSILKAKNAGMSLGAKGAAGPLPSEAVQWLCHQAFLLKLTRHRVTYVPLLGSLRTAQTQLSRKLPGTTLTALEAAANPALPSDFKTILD
UniProt Q16644: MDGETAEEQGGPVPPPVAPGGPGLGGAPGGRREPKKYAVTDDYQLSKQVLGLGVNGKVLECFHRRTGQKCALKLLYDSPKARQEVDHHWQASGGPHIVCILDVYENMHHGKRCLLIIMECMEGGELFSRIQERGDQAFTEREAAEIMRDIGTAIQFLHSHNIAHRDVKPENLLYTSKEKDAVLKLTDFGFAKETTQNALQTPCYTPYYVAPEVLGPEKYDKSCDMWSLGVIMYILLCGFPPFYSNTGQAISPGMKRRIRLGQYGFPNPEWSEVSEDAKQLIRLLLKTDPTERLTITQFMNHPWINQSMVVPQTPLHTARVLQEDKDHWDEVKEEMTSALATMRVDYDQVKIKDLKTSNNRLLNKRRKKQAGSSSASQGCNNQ

Test [1] concerns the target TERT (telomerase reverse transcriptase), catalytic subunit of telomerase (human) (UniProt O14746). As to the kind of experiment: GST pull-down of 35S-methionine labeled TERT (FIG. 2).
The target is the same in test [2]. As to the kind of experiment: GST pull-down of 35S-methionine labeled TERT, SDS-PAGE, autoradiography.

As to “GST fusion MAPKAPK3 (N-terminal GST fusion human MAPKAPK3) (from UniProt Q16644 1-382) (enzyme)”, the binding entry in test [1] and in test [2] was “binds” each time.
